Results reported in patent publication US6884577B2, “Methods for screening compounds for estrogenic activity” (The Regents of the University of California, priority 1993, dated 2005).
At least one compound was matched to its structure with a doubt left.

System: HE15 activation of AP-1 activity
Assay: Inhibitor screen: HE15 (constitutive ER) activation of AP-1 activity
Format: cell-based
Conditions: HeLa cells
Procedure: An estrogen receptor (ER) was transiently transfected into either HeLa or HepG2 cells along with an AP-1 responsive reporter gene, Coll73-LUC. The transformed cells were then contacted with antiestrogens or estrogen in combination with prospective inhibitor drugs. […] Luciferase was measured in cell extracts as an indication of AP-1 dependent promoter activity.

Structure (SMILES): COC[C@H]1OC(=O)c2coc3c2[C@@]1(C)C1=C(C3=O)[C@@H]2CCC(=O)[C@@]2(C)C[C@H]1OC(C)=O [wortmannin]
- inhibition of the activation of AP-1 activity by HE15: did not
